Consider 17 substances from patent US5162305 (dated 1992).

*: point of attachment. Boc = CC(C)(C)OC(=O)*; OcHex = C1CCC(O*)CC1; Bn = c1ccc(C*)cc1

The data set is described as follows: general procedure: solution-phase peptide synthesis; azide method (isoamyl nitrite/HCl-dioxane); OSu active esters; TFA-ONp (p-nitrop). The note with it: coupling step.
In turn, “Boc-LS(Bn)QE(OcHex)LHLQT(Bn)PT(Bn)D(OcHex)VGAGT(Bn)P-NH2” registered a step yield of 90.9%.

In turn, “Boc-Leu-His(Tos)-Lys(Cl-Z)-Leu-Gln-Thr(Bzl)-D-Tyr(Cl2 -Bzl)-Pro-Arg(Tos)-Thr(Bzl)-Asp(OcHex)-Val-Gly-Ala-Gly-Thr(Bzl)-Pro--NH2” gave a step yield of 92.4%.

“Boc-Leu-His(Tos)-Lys(Cl-Z)-Leu-Gln-Thr(Bzl)-Pro-Arg(Tos)-Thr(Bzl)-Asp(OcHex)-Val-Gly-Ala-Gly-Thr(bzl)-Pro--NH2” displayed a step yield of 88.2%.

The substance “Boc-Leu-His-Lys(Bz)-Leu-Gln-Thr(Bzl)-Tyr-(Bzl)-Pro-Arg(Tos)-Thr(Bzl)-Asp(OBzl)-Val-Gly-Ala-Gly-Thr(Bzl)-Pro--NH2” had a step yield of 92.0%.

The substance “Boc-Leu-His-Lys(Cl Z)-Gln-Thr(Bzl)-Pro-Arg(Tos)-Thr(Bzl)-Asp(OcHex)-Val-Gly-Ala-Gly-Thr(Bzl)- Pro--NH2” showed a step yield of 102.0%.

For the substance “Boc-Lys(Bz)-Leu-Gln-Thr(Bzl)-Tyr(Bzl)-Pro-Arg(Tos)-Thr(Bzl)-Asp(Obzl)-Val- Gly-Ala-Gly-Thr(Bzl)-Pro--NH2”, the step yield amounted to 95.3%.

In turn, “Boc-Lys(Bz)-Leu-Ser(Bzl)-Gln-Glu(OBzl)-Leu-His-Lys(Bz)-Leu-Gln-Thr(Bzl)-Tyr(Bzl)-Pro-Arg(Tos)-Thr(Bzl)-Asp(OBzl)-Val-Gly-Ala-Gly-Thr(Bzl)-Pro--NH2” displayed a step yield of 98.9%.

Take “Boc-Lys(Bz)-Leu-Ser(Bzl)-Gln-Glu(OBzl)-Leu-His-Lys(Cl-Z)-Leu-Gln-Thr(Bzl)- Tyr(Bzl)-Pro-Arg(Tos) Thr(Bzl)-Asp(OBzl)-Val-Gly-Ala-Gly-Thr(Bzl)-Pro--NH2”: the step yield is 80.6%.

“Boc-Lys(COCH3)-Leu-Ser(Bzl)-Gln-Glu(OBzl)-Leu-His-Lys(Cl-Z)-Leu-Gln-Thr(Bzl)-Tyr(Bzl)-Pro-Arg(Tos)-Thr(Bzl)-Asp(OBzl)-Val-Gly-Ala-Gly-Thr(Bzl)-Pro--NH2” registered a step yield of 63.9%.

Substance “Boc-Lys(COCH3)-Leu-Ser(Bzl)-Gln-Glu(OcHex)-Leu-Asn-Lys(Cl-Z)-Leu-Gln- Thr(Bzl)-Pro-Gln-Thr(Bzl)-Asp(OcHex)-Val-Gly-Ala-Gly-Thr(Bzl)-Pro--NH2” came in with a step yield of 91.2%.

In turn, “Boc-Lys(COCH3)-Leu-Ser(Bzl)-Gln-Glu(OcHex)-Leu-Gly-Lys(Cl-Z)-Leu-Gln- Thr(Bzl)-Pro-Gln-Thr(Bzl)-Asp(OcHex)-Val-Gly-Ala-Gly-Thr(Bzl)-Pro--NH2” came in with a step yield of 88.6%.

As to “Boc-Lys(Cl-Bz)-Leu-Ser(Bzl)-Gln-Glu(OBzl)-Leu-His-Lys(Cl-Z)-Leu-Gln-Thr(Bzl)-Tyr(Bzl)-Pro-Arg(Tos)-Thr(Bzl)-Asp(OBzl)-Val-Gly-Ala-Gly-Thr(Bzl)-Pro--NH2”, the step yield is given as 58.3%.

The substance “Boc-Lys(Cl-Z)-Gln-Thr(Bzl)-Tyr(Cl2 -Bzl)-Pro-Arg(Tos)-Thr(Bzl)-Asp(OBzl)-Val-Gly-Ala-Gly-Thr(Bzl)-Pro--NH2” showed a step yield of 93.0%.

In the case of “Boc-Lys(Cl-Z)-Leu-Gln-Thr(Bzl)-Tyr(Cl2-Bzl)-Pro-Gln-Thr(Bzl)-Asp(OcHex)-Val-Gly-Ala-Gly-Thr(Bzl)-Pro--NH2”, the step yield is listed as 88.2%.

“Boc-Lys(Cl-Z)-Leu-Ser(Bzl)-Gln-Glu(OEt)-Leu-His-Lys(Cl-Z)-Leu-Gln-Thr(Bzl)-Pro-Arg(Tos)-Thr(Bzl)-Asp(OEt)-Val-Vly-Ala-Gly-Thr(Bzl)-Pro--NH2” gave a step yield of 87.7%.

Regarding “Boc-Lys(Cl-Z)-Leu-Ser(Bzl)-Gln-Glu(OcHex)-Leu-His(Tos)-Lys(Cl-Z)-Gln-Thr(Bzl)-Tyr(Cl2 -Bzl)-Pro-Arg(Tos)-Thr(Bzl)-Asp(OBzl)-Val-Gly-Ala-Gly-Thr(Bzl)-Pro--NH2”, the step yield worked out at 86.4%.

In the case of “Boc-Lys(Cl-Z)-Leu-Ser(Bzl)-Gln-Glu(OcHex)-Leu-His(Tos)-Lys(Cl-Z)-Leu-Gln-Thr(Bzl)-Pro-Arg(Tos)-Thr(Bzl)-Asp(OEt)-Val-Gly-Ala-Gly-Thr(Bzl)-Pro--NH2”, the step yield turned out to be 90.3%.
